Test results reported in US20100136005A1.
These are yes or no findings as the source states them, for the method shown.

Key:
human CD11a (human) = molecular target: T1, human CD11a (human) (UniProt P20701); assay: FACScan, Jurkat cells
T1 sequence (looked up): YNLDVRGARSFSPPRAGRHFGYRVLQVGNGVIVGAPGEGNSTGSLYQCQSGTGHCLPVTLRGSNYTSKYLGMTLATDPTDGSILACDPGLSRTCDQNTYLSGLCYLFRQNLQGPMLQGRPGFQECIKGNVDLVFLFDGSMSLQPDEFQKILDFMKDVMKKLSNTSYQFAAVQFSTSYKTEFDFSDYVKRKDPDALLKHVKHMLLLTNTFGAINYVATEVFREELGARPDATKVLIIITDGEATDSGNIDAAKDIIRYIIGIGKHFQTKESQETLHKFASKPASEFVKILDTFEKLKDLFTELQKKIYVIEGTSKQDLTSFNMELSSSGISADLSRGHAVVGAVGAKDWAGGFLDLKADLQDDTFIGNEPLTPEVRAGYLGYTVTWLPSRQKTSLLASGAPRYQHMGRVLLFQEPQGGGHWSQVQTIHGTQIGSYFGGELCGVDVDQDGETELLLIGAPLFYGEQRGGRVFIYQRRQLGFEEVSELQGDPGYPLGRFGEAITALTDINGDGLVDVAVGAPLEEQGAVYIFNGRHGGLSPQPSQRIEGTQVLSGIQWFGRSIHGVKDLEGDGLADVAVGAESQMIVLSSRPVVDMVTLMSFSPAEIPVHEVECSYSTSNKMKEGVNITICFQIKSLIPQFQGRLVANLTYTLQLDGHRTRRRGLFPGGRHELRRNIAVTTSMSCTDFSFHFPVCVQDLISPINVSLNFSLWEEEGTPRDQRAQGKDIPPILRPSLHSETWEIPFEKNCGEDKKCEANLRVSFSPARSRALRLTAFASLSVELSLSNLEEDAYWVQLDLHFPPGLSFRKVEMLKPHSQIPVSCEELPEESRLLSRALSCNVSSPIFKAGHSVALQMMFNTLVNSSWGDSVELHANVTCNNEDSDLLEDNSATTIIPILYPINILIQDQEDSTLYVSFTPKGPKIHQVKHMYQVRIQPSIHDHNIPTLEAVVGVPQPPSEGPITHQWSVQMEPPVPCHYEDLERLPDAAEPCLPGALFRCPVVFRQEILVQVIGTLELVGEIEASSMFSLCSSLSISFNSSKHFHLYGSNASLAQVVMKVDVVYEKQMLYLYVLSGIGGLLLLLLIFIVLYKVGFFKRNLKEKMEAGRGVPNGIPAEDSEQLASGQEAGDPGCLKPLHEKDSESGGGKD

rhesus CD11a (rhesus) = molecular target: T2, rhesus CD11a (rhesus) (UniProt H9Z8N3); assay: condition: greater than 10-fold weaker than HuIgG1 (EC50 45.6 nM); binding to rhesus peripheral blood lymphocytes
T2 sequence: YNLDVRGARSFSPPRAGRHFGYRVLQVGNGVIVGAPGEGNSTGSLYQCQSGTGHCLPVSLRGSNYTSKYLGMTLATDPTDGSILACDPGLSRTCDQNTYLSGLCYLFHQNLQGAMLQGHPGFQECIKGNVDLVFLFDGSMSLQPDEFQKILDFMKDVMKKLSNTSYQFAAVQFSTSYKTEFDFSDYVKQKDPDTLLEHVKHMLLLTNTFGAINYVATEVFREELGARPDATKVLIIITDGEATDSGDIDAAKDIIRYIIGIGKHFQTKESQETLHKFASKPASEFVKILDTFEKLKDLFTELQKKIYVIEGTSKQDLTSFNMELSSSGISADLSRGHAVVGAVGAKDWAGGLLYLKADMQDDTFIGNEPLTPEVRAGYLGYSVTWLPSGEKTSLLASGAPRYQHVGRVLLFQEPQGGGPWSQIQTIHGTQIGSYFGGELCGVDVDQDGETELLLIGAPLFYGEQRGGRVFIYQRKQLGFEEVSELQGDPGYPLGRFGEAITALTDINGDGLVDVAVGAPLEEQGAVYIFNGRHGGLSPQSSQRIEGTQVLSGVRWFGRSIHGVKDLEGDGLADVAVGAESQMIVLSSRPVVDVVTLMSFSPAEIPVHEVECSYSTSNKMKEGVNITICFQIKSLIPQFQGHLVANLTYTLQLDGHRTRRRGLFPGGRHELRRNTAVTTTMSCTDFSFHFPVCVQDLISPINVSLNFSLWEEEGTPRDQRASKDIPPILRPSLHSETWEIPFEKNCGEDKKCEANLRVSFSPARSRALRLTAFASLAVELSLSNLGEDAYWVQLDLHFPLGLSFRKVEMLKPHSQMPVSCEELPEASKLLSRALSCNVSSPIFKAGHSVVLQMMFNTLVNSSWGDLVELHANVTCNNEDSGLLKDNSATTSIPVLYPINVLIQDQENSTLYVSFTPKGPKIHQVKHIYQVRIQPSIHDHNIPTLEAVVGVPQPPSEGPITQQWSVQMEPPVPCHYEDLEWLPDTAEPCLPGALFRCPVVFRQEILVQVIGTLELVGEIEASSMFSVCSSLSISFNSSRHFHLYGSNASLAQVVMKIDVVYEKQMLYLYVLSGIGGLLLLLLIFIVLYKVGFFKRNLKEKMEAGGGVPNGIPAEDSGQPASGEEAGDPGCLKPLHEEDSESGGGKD

B1: H3 (antibody, human IgG1, V domains shown)
VH: EVQLVESGGGLVQPGGSLRLSCAASGYSFTGHWMNWVRQAPGKGLEWVGMIHPSDSETRYNQKFKDRFTISVDKSKNTLYLQMNSLRAEDTAVYYCARGIAFAGTTYFDYWGQGTLVTVSS
VL: DIQMTQSPSSLSASVGDRVTITCRASKTISKYLAWYQQKPGKAPKLLIYSGSTLQSGVPSRFSGSGSGTDFTLTISSLQPEDFATYYCQQHNEYPLTFGQGTKVEIK
For B1, which binding (human CD11a (human)) is on record?
The binding was “no binding (tested: Var.EC50/HuIgG1 EC50 >900)”.

And the binding (rhesus CD11a (rhesus))?
The binding was “no binding”.
